# In the supplement of paper PMC12067093, “Discovery and optimisation of a covalent ligand for TRIM25 and its application to targeted protein ubiquitination” (Chemical Science, 2025):
# The chains behind the UniProt entries cited, without tags or fusion partners. Where a name states a change or a piece, a line headed by the entry shows the natural chain unless it says otherwise.
# UniProt O15027: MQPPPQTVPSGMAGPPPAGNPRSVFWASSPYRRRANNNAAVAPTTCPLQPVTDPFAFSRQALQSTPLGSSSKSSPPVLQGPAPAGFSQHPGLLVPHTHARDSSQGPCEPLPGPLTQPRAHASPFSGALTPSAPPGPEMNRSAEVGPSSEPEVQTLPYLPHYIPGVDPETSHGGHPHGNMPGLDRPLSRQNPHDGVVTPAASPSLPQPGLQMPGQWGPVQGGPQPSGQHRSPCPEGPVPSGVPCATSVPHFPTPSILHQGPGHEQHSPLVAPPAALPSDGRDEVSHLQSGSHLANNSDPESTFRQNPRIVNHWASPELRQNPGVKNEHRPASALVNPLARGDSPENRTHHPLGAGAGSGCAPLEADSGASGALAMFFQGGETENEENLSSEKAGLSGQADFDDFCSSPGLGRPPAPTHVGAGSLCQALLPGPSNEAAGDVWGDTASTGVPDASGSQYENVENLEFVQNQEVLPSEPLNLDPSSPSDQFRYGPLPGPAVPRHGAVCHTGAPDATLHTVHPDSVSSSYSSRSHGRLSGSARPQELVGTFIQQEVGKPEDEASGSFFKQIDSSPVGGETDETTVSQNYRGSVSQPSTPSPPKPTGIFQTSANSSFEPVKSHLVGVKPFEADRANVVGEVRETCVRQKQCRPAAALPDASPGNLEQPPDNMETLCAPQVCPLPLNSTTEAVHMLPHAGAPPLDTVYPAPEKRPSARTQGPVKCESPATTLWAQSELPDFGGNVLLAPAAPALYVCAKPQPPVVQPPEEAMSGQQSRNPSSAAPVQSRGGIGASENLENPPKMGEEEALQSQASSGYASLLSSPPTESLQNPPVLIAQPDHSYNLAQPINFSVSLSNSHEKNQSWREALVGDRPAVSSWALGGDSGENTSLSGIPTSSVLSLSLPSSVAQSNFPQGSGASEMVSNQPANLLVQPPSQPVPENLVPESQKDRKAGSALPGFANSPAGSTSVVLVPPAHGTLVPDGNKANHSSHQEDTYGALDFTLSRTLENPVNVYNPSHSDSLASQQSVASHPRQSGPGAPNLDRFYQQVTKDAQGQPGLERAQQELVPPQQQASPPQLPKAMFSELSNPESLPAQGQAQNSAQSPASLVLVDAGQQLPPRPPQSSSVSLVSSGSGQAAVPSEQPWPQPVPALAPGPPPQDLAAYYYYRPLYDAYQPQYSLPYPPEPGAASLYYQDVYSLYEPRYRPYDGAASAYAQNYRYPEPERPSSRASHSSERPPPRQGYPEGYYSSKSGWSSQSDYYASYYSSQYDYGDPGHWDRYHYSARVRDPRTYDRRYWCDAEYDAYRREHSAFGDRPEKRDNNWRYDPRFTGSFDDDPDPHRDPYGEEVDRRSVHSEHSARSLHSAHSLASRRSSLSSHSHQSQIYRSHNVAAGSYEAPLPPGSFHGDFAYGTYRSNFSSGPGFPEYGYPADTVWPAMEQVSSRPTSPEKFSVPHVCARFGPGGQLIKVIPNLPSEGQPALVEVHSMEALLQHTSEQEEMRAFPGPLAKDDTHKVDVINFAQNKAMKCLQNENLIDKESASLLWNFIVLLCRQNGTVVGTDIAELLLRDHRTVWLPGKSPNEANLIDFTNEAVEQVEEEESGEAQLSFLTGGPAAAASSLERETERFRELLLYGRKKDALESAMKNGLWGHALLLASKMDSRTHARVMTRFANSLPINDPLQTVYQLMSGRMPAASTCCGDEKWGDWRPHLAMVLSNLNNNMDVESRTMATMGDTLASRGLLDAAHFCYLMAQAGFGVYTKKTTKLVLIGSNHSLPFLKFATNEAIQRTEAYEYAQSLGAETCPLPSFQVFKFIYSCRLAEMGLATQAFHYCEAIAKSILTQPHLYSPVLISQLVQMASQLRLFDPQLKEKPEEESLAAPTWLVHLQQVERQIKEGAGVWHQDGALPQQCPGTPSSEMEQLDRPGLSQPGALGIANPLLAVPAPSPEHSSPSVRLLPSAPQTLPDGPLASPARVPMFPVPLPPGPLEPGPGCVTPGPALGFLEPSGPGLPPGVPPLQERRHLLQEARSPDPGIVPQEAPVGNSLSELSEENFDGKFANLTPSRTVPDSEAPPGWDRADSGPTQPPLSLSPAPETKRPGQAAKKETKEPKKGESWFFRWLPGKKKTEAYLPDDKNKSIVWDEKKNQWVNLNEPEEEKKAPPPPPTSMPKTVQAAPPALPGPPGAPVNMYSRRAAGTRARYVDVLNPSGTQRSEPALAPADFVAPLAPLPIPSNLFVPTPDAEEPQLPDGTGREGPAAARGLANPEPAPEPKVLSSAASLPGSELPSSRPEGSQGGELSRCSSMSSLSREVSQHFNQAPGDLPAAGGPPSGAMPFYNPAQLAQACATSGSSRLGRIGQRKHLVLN
# UniProt O94855: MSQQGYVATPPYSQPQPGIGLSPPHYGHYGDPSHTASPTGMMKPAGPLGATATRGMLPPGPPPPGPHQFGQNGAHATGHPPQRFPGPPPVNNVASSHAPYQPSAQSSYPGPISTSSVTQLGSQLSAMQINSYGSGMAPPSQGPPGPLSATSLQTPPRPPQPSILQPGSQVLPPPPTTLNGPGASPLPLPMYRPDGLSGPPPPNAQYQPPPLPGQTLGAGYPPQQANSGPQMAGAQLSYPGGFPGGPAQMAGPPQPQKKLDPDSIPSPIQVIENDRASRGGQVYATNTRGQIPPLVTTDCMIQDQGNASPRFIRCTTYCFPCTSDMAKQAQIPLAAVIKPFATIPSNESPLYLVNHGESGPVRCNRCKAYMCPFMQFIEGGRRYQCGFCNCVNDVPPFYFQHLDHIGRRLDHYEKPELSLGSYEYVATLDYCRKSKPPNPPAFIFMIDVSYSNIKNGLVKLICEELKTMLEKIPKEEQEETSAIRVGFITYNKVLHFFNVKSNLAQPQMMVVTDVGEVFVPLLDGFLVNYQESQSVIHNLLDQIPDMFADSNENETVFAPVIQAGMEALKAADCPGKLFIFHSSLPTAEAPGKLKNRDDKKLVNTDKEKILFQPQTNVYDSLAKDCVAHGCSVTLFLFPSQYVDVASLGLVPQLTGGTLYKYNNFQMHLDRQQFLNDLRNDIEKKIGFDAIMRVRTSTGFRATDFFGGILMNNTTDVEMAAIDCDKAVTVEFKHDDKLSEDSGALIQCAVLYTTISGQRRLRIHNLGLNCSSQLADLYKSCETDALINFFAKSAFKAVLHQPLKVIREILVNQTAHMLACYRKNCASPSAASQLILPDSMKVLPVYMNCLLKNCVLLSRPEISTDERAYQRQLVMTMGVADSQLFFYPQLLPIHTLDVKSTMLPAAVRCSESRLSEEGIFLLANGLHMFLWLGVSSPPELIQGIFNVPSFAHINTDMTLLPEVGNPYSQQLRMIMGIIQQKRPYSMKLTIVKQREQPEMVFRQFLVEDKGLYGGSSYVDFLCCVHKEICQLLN
# UniProt Q15436: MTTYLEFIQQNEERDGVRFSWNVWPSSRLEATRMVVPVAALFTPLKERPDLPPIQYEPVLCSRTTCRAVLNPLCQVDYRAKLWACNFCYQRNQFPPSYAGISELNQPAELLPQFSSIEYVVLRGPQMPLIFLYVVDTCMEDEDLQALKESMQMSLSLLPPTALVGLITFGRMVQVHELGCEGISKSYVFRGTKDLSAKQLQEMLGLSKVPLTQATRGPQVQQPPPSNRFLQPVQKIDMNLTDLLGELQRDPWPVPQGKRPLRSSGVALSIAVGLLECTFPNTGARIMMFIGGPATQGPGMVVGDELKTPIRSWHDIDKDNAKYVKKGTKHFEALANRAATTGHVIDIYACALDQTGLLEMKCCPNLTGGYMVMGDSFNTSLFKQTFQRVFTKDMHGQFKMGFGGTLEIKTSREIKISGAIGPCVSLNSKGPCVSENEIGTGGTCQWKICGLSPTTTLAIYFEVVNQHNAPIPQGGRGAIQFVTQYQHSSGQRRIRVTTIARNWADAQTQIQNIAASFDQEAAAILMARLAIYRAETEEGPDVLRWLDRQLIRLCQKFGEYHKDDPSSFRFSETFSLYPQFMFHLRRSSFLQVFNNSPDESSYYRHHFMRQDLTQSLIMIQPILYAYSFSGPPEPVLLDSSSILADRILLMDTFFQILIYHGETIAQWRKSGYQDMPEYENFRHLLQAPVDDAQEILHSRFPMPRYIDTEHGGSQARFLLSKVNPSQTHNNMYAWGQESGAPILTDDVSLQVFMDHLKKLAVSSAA
# UniProt Q96KG9: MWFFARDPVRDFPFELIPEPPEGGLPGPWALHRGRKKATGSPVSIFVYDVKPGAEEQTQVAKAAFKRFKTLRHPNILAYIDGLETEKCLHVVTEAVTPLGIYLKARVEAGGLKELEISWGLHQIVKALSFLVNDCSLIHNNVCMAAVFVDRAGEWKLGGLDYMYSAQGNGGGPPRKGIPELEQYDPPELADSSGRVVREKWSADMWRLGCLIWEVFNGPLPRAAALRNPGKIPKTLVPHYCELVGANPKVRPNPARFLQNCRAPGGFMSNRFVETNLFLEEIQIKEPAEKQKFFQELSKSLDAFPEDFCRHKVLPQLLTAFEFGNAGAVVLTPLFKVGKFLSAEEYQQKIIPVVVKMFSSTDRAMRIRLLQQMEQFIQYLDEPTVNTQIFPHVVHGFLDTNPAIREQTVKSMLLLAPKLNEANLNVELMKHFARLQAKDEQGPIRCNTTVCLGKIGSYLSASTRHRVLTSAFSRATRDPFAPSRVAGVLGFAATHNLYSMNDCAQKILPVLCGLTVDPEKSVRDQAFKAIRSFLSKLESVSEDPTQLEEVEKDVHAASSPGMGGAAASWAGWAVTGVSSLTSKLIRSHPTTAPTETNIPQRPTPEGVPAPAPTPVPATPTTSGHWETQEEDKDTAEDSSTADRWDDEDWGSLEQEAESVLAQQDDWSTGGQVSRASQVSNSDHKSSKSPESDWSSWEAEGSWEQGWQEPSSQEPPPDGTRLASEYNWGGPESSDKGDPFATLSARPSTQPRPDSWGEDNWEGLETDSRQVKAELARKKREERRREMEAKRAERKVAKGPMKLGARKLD
# UniProt Q9UBV2: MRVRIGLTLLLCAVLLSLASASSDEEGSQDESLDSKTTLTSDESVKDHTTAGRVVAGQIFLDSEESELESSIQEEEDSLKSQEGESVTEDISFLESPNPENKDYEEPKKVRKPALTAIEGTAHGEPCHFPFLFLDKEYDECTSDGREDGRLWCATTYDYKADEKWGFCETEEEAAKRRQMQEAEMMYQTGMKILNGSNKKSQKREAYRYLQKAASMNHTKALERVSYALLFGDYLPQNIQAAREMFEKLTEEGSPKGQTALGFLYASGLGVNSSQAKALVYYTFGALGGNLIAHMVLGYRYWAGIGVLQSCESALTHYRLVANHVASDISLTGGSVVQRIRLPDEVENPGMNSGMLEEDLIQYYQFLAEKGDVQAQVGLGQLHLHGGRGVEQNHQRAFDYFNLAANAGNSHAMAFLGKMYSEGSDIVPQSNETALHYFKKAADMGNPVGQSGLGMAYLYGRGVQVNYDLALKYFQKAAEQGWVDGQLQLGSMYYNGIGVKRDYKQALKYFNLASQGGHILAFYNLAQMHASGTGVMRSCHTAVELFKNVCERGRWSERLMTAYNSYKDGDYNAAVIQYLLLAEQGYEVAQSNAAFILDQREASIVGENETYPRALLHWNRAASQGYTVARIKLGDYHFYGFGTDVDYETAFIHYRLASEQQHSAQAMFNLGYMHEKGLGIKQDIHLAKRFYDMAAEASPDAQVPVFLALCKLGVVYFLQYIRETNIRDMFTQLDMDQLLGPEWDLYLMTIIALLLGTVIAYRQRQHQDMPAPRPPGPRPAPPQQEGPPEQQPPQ
# UniProt Q86SQ7: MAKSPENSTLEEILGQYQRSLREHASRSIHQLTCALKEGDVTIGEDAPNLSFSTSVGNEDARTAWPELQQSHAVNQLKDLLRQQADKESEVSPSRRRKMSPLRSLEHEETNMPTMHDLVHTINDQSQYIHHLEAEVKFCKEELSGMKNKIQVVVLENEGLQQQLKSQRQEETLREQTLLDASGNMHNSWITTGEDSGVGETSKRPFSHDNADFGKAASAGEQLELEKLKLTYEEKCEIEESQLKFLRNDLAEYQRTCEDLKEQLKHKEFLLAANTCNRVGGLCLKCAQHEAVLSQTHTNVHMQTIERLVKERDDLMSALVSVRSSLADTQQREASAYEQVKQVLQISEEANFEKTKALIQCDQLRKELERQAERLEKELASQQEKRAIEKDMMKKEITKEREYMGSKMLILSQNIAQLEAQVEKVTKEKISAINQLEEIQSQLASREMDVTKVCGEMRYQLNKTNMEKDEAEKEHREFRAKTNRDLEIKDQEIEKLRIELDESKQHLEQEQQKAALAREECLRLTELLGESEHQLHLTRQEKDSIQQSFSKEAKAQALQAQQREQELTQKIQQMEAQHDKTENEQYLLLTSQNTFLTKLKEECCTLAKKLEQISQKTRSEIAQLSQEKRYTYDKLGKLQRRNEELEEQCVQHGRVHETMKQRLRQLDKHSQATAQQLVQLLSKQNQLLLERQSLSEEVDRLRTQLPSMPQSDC
# This is one part of the list.
# Compound: CC1Cc2ccccc2N1C(=O)C1CCCN(C1)C(=O)CCl (mixture of isomers) [TRIM25 ligand 11 (diastereomer mixture)]
# Test: probe-labelled cysteine peptide fold change vs DMSO (competition) (log2 fold change); higher = less target engagement (more negative = stronger competition)
# Conditions: THP-1, incubation time: 4 h
# 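Also: competitive chemoproteomic profiling in live THP-1 cells with an iodoacetamide desthiobiotin (IA-DTB) probe, comparing probe-labelled peptide intensities in compound-treated cells against DMSO-treated controls.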
Target,probe-labelled cysteine peptide fold change (10 µM),probe-labelled cysteine peptide fold change (50 µM)
SEC16A_O15027_1797_TEAYEYAQSLGAETCPLPSFQVFK (UniProt O15027),0.089,-0.114
SAPCD2_Q86UD0_46_GCVHLR (UniProt Q86UD0),-0.0698,0.204
SCAF8_Q9UPN6_1170_DDRDFDFCR (UniProt Q9UPN6),-0.0203,-0.456
SBF1_O95248_1197_FPVVCWR (UniProt O95248),-0.118,0.038
SEPHS1_P49903_317_ACGNMFGLMHGTCPETSGGLLICLPR (UniProt P49903),-0.09,-0.258
SEC24D_O94855_1028_EICQLLN (UniProt O94855),-0.236,-0.0431
SAR1A_Q9NR31_102_NYLPAINGIVFLVDCADHSR (UniProt Q9NR31),0.00914,-0.0176
SEC24D_O94855_780_SCETDALINFFAK (UniProt O94855),0.00338,0.0401
SAP18_O00422_26_TCPLLLR (UniProt O00422),-0.165,-0.0452
SDHA_P31040_475_ACALSIEESCRPGDK (UniProt P31040),0.243,0.328
SEC16A_O15027_107_DSSQGPCEPLPGPLTQPR (UniProt O15027),-0.169,-0.0215
SCMH1_Q96GD3_116_LVDSAEIQPIGNCEK (UniProt Q96GD3),0.0496,0.0724
SEPHS2_Q99611_377_FGLLQGTSAETSGGLLICLPR (UniProt Q99611),0.196,-0.657
SATB2_Q9UPW6_246_VERENLSDYCVLGQRPMHLPNMNQLASLGK (UniProt Q9UPW6),-0.119,-0.145
SEC23A_Q15436_61_ERPDLPPIQYEPVLCSR (UniProt Q15436),-0.174,-0.102
SCYL1_Q96KG9_143_ALSFLVNDCSLIHNNVCMAAVFVDR (UniProt Q96KG9),0.00271,0.086
SCAF11_Q99590_446_EHQPDVDSSNICTVQTHVENQSANCLK (UniProt Q99590),-0.00925,-0.237
SATB2_Q9UPW6_246_VERENLSDYCVLGQR (UniProt Q9UPW6),0.0584,-0.00518
SEMA4A_Q9H3S1_514_DPHCAWDPESR (UniProt Q9H3S1),0.171,0.42

Target,probe-labelled cysteine peptide fold change (10 µM),probe-labelled cysteine peptide fold change (50 µM)
SEL1L_Q9UBV2_127_KPALTAIEGTAHGEPCHFPFLFLDK (UniProt Q9UBV2),0.095,0.19
SDCCAG8_Q86SQ7_361_ALIQCDQLR (UniProt Q86SQ7),0.0721,-0.00568
SEC13_P55735_234_DVAWAPSIGLPTSTIASCSQDGR (UniProt P55735),-0.0694,0.0911
SATB2_Q9UPW6_159_IQLQSCSK (UniProt Q9UPW6),0.071,-0.00125
SEL1L_Q9UBV2_127_PALTAIEGTAHGEPCHFPFLFLDK (UniProt Q9UBV2),-0.0147,0.277
SEC23A_Q15436_350_AATTGHVIDIYACALDQTGLLEMK (UniProt Q15436),0.0214,0.0795
SEH1L_Q96EE3_161_IYEAPDVMNLSQWSLQHEISCK (UniProt Q96EE3),0.163,0.213
SAMHD1_Q9Y3Z3_320_DCHHLGIQNNFDYKR (UniProt Q9Y3Z3),-0.0928,-0.0432
SBDS_Q9Y3A5_210_VIESEDYGQQLEIVCLIDPGCFR (UniProt Q9Y3A5),-0.259,0.206
SCYL1_Q96KG9_451_CNTTVCLGK (UniProt Q96KG9),-0.0956,-0.0711
SEC23B_Q15437_40_MVVPLACLLTPLK (UniProt Q15437),-0.0615,-0.0659
SEC22A_Q96IW7_33_VRDGLPLSASTDYEQSTGMQECR (UniProt Q96IW7),-0.0539,-0.102
SEC31A_O94979_279_GILAIAWSMADPELLLSCGK (UniProt O94979),-0.49,0.171
SATB1_Q01826_91_KGTMLPVFCVVEHYENAIEYDCKEEHAEFVLVR (UniProt Q01826),0.163,0.111
SDS_P20132_270_ILVEPACGAALAAVYSHVIQK (UniProt P20132),-0.0749,-0.128
SBF1_O95248_839_VCTESGVTSDHLK (UniProt O95248),0.116,0.0908
SEC23IP_Q9Y6Y8_678_IDMESLLMCTVDDLK (UniProt Q9Y6Y8),0.0286,-0.137
SEC24C_P53992_816_HDDRLNEESGALLQCALLYTSCAGQR (UniProt P53992),0.167,0.171
